Results are given in words; binding and its absence hold for the method and conditions named. Binding seen in cells or lysates may run through a third protein. Some binding calls cover weakened binding; strength is not graded here. Tags and fused reporters may be left off the sequences shown.

The test deals with T1, Myc-A20 (Myc epitope-tagged A20, TNFAIP3) (UniProt P21580).
T1 sequence (looked up): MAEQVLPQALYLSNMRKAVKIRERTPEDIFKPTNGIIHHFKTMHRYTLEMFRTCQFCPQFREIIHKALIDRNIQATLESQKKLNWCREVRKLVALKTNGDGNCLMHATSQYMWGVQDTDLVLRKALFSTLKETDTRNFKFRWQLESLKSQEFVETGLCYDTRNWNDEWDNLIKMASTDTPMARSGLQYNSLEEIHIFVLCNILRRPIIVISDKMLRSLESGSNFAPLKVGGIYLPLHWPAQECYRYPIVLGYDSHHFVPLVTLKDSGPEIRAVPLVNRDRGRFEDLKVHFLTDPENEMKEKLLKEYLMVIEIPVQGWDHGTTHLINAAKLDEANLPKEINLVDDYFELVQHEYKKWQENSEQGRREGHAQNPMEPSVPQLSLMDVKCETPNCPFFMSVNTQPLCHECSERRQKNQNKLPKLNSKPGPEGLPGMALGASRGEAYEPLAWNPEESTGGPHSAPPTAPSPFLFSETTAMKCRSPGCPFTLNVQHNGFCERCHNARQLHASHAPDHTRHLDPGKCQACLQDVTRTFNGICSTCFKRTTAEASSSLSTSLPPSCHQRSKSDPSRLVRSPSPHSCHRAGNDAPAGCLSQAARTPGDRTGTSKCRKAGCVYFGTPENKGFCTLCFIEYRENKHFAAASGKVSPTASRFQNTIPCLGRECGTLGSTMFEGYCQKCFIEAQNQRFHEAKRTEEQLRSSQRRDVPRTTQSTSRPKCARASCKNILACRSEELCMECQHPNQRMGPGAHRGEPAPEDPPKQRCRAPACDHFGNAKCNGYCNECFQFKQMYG
In words: co-immunoprecipitation with anti-HA antibody from transfected 293-T cells, western blot.

As for “HA-YAP9 (HA epitope-tagged YAP1 isoform 9) (from UniProt P46937 1-508)”, the binding entry is given as “binds”.
For “HA-YAP2 (HA epitope-tagged YAP1 isoform 2) (from UniProt P46937 1-488)” the value was “binds”.

Source of the values: US20220160826A1.
